# Measured values from PubChem BioAssay AID1347076 (National Center for Advancing Translational Sciences (NCATS), 2019).
# About 13,000 (3.2%) of roughly 400,000 compounds were called active. This list was built around the results that the source calls inconclusive (neither active nor inactive); the mix of calls is not that of the screen. The call rests on the fitted dose curve; in most records, active means well fitted cell-killing curve with a large enough effect; inconclusive means small, poorly fitted or top-dose-only effect, or effect the other way; inactive means flat fitted curve, though single readings scatter. Potencies of inconclusive entries are doubtful fits and often do not repeat.
# Test: qHTS assay for MDR1-selective chemotherapeutics: Primary screen using the drug-selected MDR subline cells KB-V1; further: nearly all actives have a fitted effect of over 60% in size
# Conditions: KB-V1 MDR cells viability, CellTiter-Glo, 72 h; activity change, negative = cytotoxicity: at 46.1 µM (top of the series)
# Summary of the method: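 Readout: CellTiter-Glo luminescence, 10 min after addition. Cells: KB-V1 MDR subline, 72 h at 37 degrees C with compound. Analysis: corrected, normalized data fitted to concentration-effect curves.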
# On the % scale 0 is the no-effect control and ±100 the full control effect; potency means the concentration at half of the fitted maximal effect.
SMILES,Potency,"activity change, negative = cytotoxicity"
CCC(C)(C)n1nnnc1CN1CCN(c2nc3ccc(C)cc3cc2C#N)CC1,active: 23.1 µM,
Cc1occc1C(=O)NNC(=O)Nc1ccc(Cl)c(Cl)c1,"inconclusive: 14.6 µM [rising, partial curve, poor fit]",
O=C(/C=C/c1ccccc1[N+](=O)[O-])c1ccccc1Br,"inconclusive: 18.4 µM [cytotoxic, single point]",
CC(C)(c1ccccc1)c1ccc(OCCn2cnc3ccccc3c2=O)cc1,"inconclusive: 25.9 µM [cytotoxic, single point]",
C[C@@H]1CC2[C@@H]3CC[C@H]4CC(=O)CC[C@]4(C)C3=CC[C@]2(C)[C@@]1(O)C(=O)CO (stereo not given in full),,inactive: -13.2%
COc1ccc(N=C2C(=S)N(c3ccc(OC)cc3)C(=NS(=O)(=O)c3ccccc3)N2c2ccccc2)cc1,"inconclusive: 1.16 µM [cytotoxic, full curve]",
CC(C)N(C(=O)CSc1ccc(S(=O)(=O)N2CCCCC2)cn1)c1ccccc1,,inactive: -16.3%
CC1SC(c2ccc(Cl)cc2)NC1=O (stereo not given),"inconclusive: 8.2 µM [rising, partial curve, poor fit]",
CS(=O)(=O)N1N=C(c2ccco2)CC1c1ccco1 (stereo not given),"inconclusive: 13 µM [rising, partial curve, poor fit]",
COc1ccc(-c2nc3ccc(NS(=O)(=O)c4ccc(C)cc4)cc3o2)cc1,,inactive: 1.2%
Cc1ccc(-n2ncc3c2CCCC3NC(=O)CCCN2CCCC2=O)cc1C (stereo not given),"inconclusive: 18.4 µM [cytotoxic, single point]",
O=C(CSc1nc2sc3c(c2c(=O)n1-c1ccccc1)CCCC3)N/N=C/c1ccccc1C(=O)O,"inconclusive: 6.51 µM [rising, partial curve]",
CCOC(=O)C(C)Sc1ncc(OC)c(Sc2ccc(Cl)cc2)n1 (stereo not given),"inconclusive: 20.6 µM [cytotoxic, single point]",
CCc1sc(NC(C)=O)nc1-c1ccccc1,,inactive: 2.1%
CSc1nc2c(cc1C#N)C(=O)CC(C)(C)C2,"inconclusive: 20.6 µM [cytotoxic, single point]",
CC(C)COn1c(=S)[nH]c2ccccc2c1=O,"inconclusive: 16.4 µM [cytotoxic, single point]",
CCCc1cc(=O)[nH]c(SCC(=O)N2C(C)CCCC2C)n1 (stereo not given),"inconclusive: 16.4 µM [cytotoxic, single point]",
Cc1onc(-c2ccccc2)c1C(=O)Nc1cccc(S(=O)(=O)NC2=NCCC2)c1,,inconclusive: -12.6%

SMILES,Potency,"activity change, negative = cytotoxicity"
CCn1c(COc2cccc3cccnc23)nnc1SC(F)F,,inconclusive: 2.31%
O=C(NC1CCCCCC1)C1c2ccccc2C(=O)N1Cc1ccco1 (stereo not given),active: 20.6 µM,
CC(=O)c1ccc(OCc2cc(C(=O)N3CC4C[C@@H]5CC3C[C@H](C4)C5)no2)cc1,"inconclusive: 18.4 µM [cytotoxic, single point]",
O=C(CCC(=O)N1CC2CCCN2c2ccccc21)NCc1ccc(Cl)cc1 (stereo not given),,inactive: -11.1%
CN(C)CCn1c(N)nc2ccccc21,"inconclusive: 3.26 µM [rising, partial curve, poor fit]",
CCOC(=O)C1(C)/C(=N/Nc2ccccc2Cl)C(=O)C(=O)N1c1ccccc1 (stereo not given),,inactive: 0.792%
COC(=O)c1ccc(C(=O)OC)c(NC(=S)N2CCCCC2C)c1 (stereo not given),active: 14.6 µM,
O=C(CSc1nnc(-c2cc3ccccc3cc2O)n1Cc1ccco1)c1ccc(F)cc1,"inconclusive: 20.6 µM [cytotoxic, single point]",
Cc1ncoc1C(=O)Nc1ccccc1C(N)=O,"inconclusive: 29.1 µM [cytotoxic, partial curve, poor fit]",
CCCCNc1c(CCc2ccccc2)nc2nc(C)cc(C)n12,"inconclusive: 11.6 µM [cytotoxic, partial curve]",
Cc1ccc(/C=N/NC(=O)c2cccc3ccccc23)o1,"inconclusive: 13 µM [cytotoxic, partial curve, poor fit]",
CCCC(=NCc1ccccc1)C1=C(O)C(C(=O)OC)C(C)(C)CC1=O (stereo not given),"inconclusive: 29.1 µM [cytotoxic, single point]",
CCn1ccnc1CN(C)Cc1nc(CCC(C)C)no1,"inconclusive: 29.1 µM [cytotoxic, single point]",
COc1ccc(OC)c(CCNC(=O)c2c(C)nn(-c3ccc(F)cc3)c2-n2cccc2)c1,active: 11.6 µM,
Cc1ccc(-c2cc(C(=O)N3CCN(C(=O)c4ccco4)CC3)[nH]n2)cc1C,,inactive: -23.4%
CC1(C)CC(C(CCN(Cc2ccccc2)C(=O)c2ccco2)c2ccc(F)cc2)CCO1 (stereo not given),active: 9.2 µM,
CC(=O)Nc1ccc(S(=O)(=O)NCCCCNS(=O)(=O)c2ccc(NC(C)=O)cc2)cc1,"inconclusive: 32.6 µM [rising, single point]",

# Random excerpt: 2 records from the list, in no set order.
SMILES,Potency,"activity change, negative = cytotoxicity"
CCCc1cc(=O)[nH]c(SCC(=O)N2C(C)CCCC2C)n1 (stereo not given),"inconclusive: 16.4 µM [cytotoxic, single point]",
COc1ccc(-c2nc3ccc(NS(=O)(=O)c4ccc(C)cc4)cc3o2)cc1,,inactive: 1.2%
